Laboratory results as given in PubChem BioAssay AID1259354 (Paczesny and Yang Labs, IUPUI and University of Michigan, 2018).
In all, about 78,000 compounds went through this assay and about 1,800 (2.3%) were called active. Inconclusive means that the source gave no clear call. Such entries were picked first, then a sample of the others. No stated cut-off is given here; in the data, active means inhibition above about 30%; inconclusive means mostly about 10% to 28%; inactive means weaker than that.

Sequences of proteins named here, by UniProt entry; tags and fusion partners are left off. A change or cut given only in a name is not applied to a line headed by its entry.
UniProt Q01638: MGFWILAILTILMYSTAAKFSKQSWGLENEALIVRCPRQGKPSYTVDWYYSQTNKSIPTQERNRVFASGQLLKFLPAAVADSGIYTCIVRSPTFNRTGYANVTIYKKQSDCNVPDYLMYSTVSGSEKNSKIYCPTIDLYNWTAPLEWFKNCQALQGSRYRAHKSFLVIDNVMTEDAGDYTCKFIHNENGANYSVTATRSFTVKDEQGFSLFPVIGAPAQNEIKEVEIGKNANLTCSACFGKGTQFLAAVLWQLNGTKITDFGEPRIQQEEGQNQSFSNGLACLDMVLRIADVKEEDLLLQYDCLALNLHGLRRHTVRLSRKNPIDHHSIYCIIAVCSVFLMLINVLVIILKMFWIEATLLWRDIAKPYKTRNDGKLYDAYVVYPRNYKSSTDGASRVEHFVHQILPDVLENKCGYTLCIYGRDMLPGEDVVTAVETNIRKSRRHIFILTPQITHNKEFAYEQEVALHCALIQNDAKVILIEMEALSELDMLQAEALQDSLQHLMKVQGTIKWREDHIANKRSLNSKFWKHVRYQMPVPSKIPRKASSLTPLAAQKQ

biological target: Interleukin-1 receptor-like 1 (Homo sapiens) (UniProt Q01638); test: blocks human ST2 binding to IL-33, primary screen, biochemical, AlphaLISA (AID 1259354); details: AlphaLISA ST2-Fc/biotin-IL-33 interaction, 1 h; at 17 µM, active compounds read high

Structure (SMILES) | inhibition
Cc1ccccc1OCC(=O)Nc1ccc(N2CCOCC2)c(Cl)c1 | inconclusive: 10%
C=CCC1c2cccc(C(=O)O)c2C(=O)N1c1ccc(OC)cc1 (stereo not drawn) | inconclusive: 18%
c1ccc(-c2ncn(CC3CNCCO3)c2-c2cc3ccccc3[nH]2)cc1 (stereo not drawn) | inconclusive: 21%
N#Cc1nc(COc2ccc(Cl)cc2)oc1NCc1cccnc1 | inconclusive: 20%
Cc1ccc(NC(=O)c2ccccc2)c([N+](=O)[O-])c1 | inconclusive: 22%
CS(=O)(=O)NC[C@H]1O[C@@H](CC(=O)N2CCc3ccccc32)[C@H](O)[C@@H]1O | inconclusive: 12%
CSc1nc2n(n1)C(c1ccc(F)cc1)C(C(=O)Nc1ccc(C)cc1C)=C(C)N2 (stereo not drawn) | inactive
CC(C)COC(=O)OCN1C(=O)CN(CCN2CC(=O)N(COC(=O)OCC(C)C)C(=O)C2)CC1=O | inconclusive: 12%
CC(C)C(CO)NCC12CC3CC(CC(C3)C1)C2 (stereo not drawn) | inactive
CC(C)(O)C#Cc1ccc(C(=O)NCc2n[nH]c3c2CCCCC3)o1 | inconclusive: 12%
CN(C)c1ccc(C2C(=C(O)c3ccccc3)C(=O)C(=O)N2CCCO)cc1 (stereo not drawn) | inactive
COc1ccc(C2SCCN2S(=O)(=O)c2cccc([N+](=O)[O-])c2)cc1 (stereo not drawn) | inconclusive: 13%
COc1cc2c(cc1OC)C(=O)NC1(CCCC1)C2 | inconclusive: 12%
CCOc1ccc(CCCC(=O)N2CCCC2c2nonc2C)cc1C (stereo not drawn) | inactive
O=C1CCC(=O)N(O)CCCCCNC(=O)CCC(=O)N(O)CCCCCNC(=O)CCC(=O)N(O)CCCCCN1 | inconclusive: 17%
CCCc1nnc(NC(=O)CCN2C(=O)CCC2=O)s1 | inactive
O=[N+]([O-])c1ccc(CSc2nnc(-c3cccnc3)n2Cc2ccco2)cc1 | inconclusive: 14%
CN(C)c1cc(N(C)CC2CC(=O)N(C(C)(C)C)C2)ncn1 (stereo not drawn) | inactive
CC1CCN(CCCNC(=O)c2cc(=O)[nH]c3ccc(S(=O)(=O)N4CCCC4)cc23)CC1 | inactive
O=C(c1ccccc1)N(c1ccc(Br)cc1)C1C=CS(=O)(=O)C1 (stereo not drawn) | inactive
Cc1cnc(N2CC(N3CCCCC3)C2)nc1N(C)C | inconclusive: 12%
COCC(=O)N[C@H]1CCN2C(=O)c3cc(-c4ccc(F)cc4F)ccc3NC(=O)[C@@H]2C1 | inconclusive: 19%
COC(=O)[C@@H]1C[C@@H](NC(=O)C(c2ccccc2)c2ccccc2)CN1Cc1ccc(O)cc1 | inactive
COc1ccc(C(=O)N2CC[C@H]3CC(=O)N(c4ccccc4)CC[C@H]3C2)cc1 | inconclusive: 13%

Structure (SMILES) | inhibition
COc1ccc(N(C)C(=O)c2cc3cc4cc(OC)ccc4nc3s2)c(OC)c1 | inconclusive: 27%
O=C1C[C@H]2c3ccccc3[C@@H]1C1C(=O)N(c3cccc(C(F)(F)F)c3)C(=O)C12 (stereo partly drawn) | inconclusive: 16%
CCOC(=O)Nc1ccc(C(C)CC)cc1 (stereo not drawn) | inactive
COc1ccc(-c2[nH]ncc2-c2[nH]cnc2-c2ccccc2)cc1 | inconclusive: 21%
CN1CCc2[nH]c3ccc(Br)cc3c2C1 | inactive
COc1ccccc1CNC(=O)CN1CC2(CCNCC2)CC1C(=O)O (stereo not drawn) | inactive
COc1ccccc1N1CCN([C@@H]2[C@H](O)[C@H](CO)O[C@@H]2CNC(C)=O)CC1 | inconclusive: 19%
CCn1c(C(C)n2cccn2)n[nH]c1=O (stereo not drawn) | inactive
Cc1ccc(CNc2nc(-c3nnc(-c4ccc(C)cc4)o3)nc3ccccc23)cc1 | inconclusive: 22%
CCn1nnnc1-c1ccc(OC)c(S(=O)(=O)Nc2c(C)n(C)n(-c3ccccc3)c2=O)c1 | inactive
N#CCSc1nc(-c2ccccc2)c(-c2ccccc2)o1 | inactive
CCOC(=O)c1cccnc1N1CCCC2(C1)C(=O)Nc1ccccc12 (stereo not drawn) | inconclusive: 11%
O=C(O)c1cccc(CC2CCN(C(=O)c3ccc4nc[nH]c4c3)C2)c1 (stereo not drawn) | inconclusive: 18%
CCCN(CCO)Cc1ccc(OCC)cc1 | inactive
COc1cc(C=O)cc(Cl)c1OCc1cccc([N+](=O)[O-])c1 | inconclusive: 22%
COCCNC(=O)c1ccc2nc3ccccc3c(=O)n2c1 | inactive
Cc1ccc(C2(C(=O)N3CCCC(N(C)C)CC3)CC2)cc1 (stereo not drawn) | inconclusive: 17%
Cc1cc(C(=O)NC2CC(=O)N(Cc3ccccc3Cl)C2)c(C)o1 (stereo not drawn) | inactive
CCc1ccc(-c2ccc(C(=O)Oc3ccc(C(=O)OC)cc3)cc2)nc1 | inactive
Cc1cccc(C(C)C)c1NS(=O)(=O)c1cccc2cccnc12 | inactive
COc1ccc(C2CC(c3ccc(Cl)cc3Cl)Nc3nc(N)nn32)cc1 (stereo not drawn) | inconclusive: 20%
O=C(Nc1ccc(Cl)cc1)N1CCc2ccccc21 | inconclusive: 17%
CC(C)Cc1nc(-c2ccc(C#CC(C)(C)O)o2)n(-c2ccccn2)n1 | inactive
CC1=C[C@@H](CNC(=O)c2ccc(C#N)cc2)[C@H](C(C)C)C[C@H]1CC(=O)NCCN(C)C | active: 31%

Structure (SMILES) | inhibition
Cc1ccc(S(=O)(=O)c2nc(C)oc2N2CCOCC2)cc1 | inconclusive: 17%
O=C(c1n[nH]c2c1CCCC2)N1CC[C@@H](c2ccc3c(c2)OCO3)[C@H](O)C1 | inconclusive: 15%
Cc1ccc(Nc2cc(C)nc(Nc3ccc(NC(=O)c4cc(C)cc(C)c4)cc3)n2)cc1 | inconclusive: 15%
Cn1nc(C2CC2)c2c1NC(=O)CC2c1nc(-c2ccc(F)cc2)cs1 (stereo not drawn) | inconclusive: 12%
Cc1c(C(C)NS(=O)(=O)c2cccnc2)cnn1-c1cccc2ccccc12 (stereo not drawn) | inactive
COc1ccc(CNC(=O)C[C@@H]2O[C@H](CNC(=O)NC3CCCCC3)[C@@H](O)[C@H]2O)cc1 | inconclusive: 10%
COc1ccc(C=Nc2sc3c(c2C#N)CCC(C)C3)cc1OC (stereo not drawn) | active: 39%
O=C1/C(=C/c2ccccc2)CC/C1=C\c1ccccc1 | active: 33%
CCOc1ccc(C(=O)N2CCN(c3ccc([N+](=O)[O-])c(NC4CC4)c3)CC2)cc1 | inconclusive: 16%
COc1ccc(C2=NN(S(=O)(=O)c3ccccc3)C(c3ccc(C)cc3)C2)cc1OC (stereo not drawn) | inactive
O=[N+]([O-])c1cccc(CN2CCN(CCOCCO)CC2)c1 | inconclusive: 10%
CC(C)c1cc(C(=O)N(C)Cc2nnc(-c3ccccc3)o2)no1 | inconclusive: 16%
Cc1cc(C)cc(N2C(=O)CSC2c2ccc(Br)cc2)c1 (stereo not drawn) | inconclusive: 15%
Cc1ccc(OCCN2CCOCC2)c(Br)c1 | inactive
CCOc1ccc(C2NC(=O)NC(C)=C2C(=O)OCCSC)cc1 (stereo not drawn) | inconclusive: 18%
CCCC(O)=C1C(=O)CC(C)(C)CC1=Nc1ccc(OC)cc1 | inactive
COc1ccc(OC)c(C2SCCN2S(=O)(=O)c2cc([N+](=O)[O-])c(C)c([N+](=O)[O-])c2)c1 (stereo not drawn) | inconclusive: 18%
Cc1c(Cc2ccccc2)c(-n2ccnc2C)n2c(nc3ccccc32)c1C#N | inconclusive: 16%
Cc1ccc(-c2ccc(C(=O)NCCc3cnc[nH]3)cc2)o1 | inconclusive: 18%
c1ccc(CN2CC[C@H](c3nnc(-c4cccnc4)o3)C2)cc1 | active: 34%
Cc1ccc2nc(NC(=O)c3ccc(S(=O)(=O)N4CC(C)CC(C)C4)cc3)sc2c1 (stereo not drawn) | inconclusive: 12%
O=C(NCCc1c[nH]c2ccccc12)c1cccn2c(=O)c3cc4ccccc4cc3nc12 | inconclusive: 16%
CCC(=O)Nc1c(C(=O)Nc2cccc(F)c2)oc2ccccc12 | inactive
COc1ccc(Oc2c(C(F)(F)F)oc3cc(O)ccc3c2=O)cc1 | inconclusive: 10%

Six of the compounds above, in markdown:

| Structure (SMILES) | inhibition |
| --- | --- |
| COc1cc2c(cc1OC)C(=O)NC1(CCCC1)C2 | inconclusive: 12% |
| CCOc1ccc(CCCC(=O)N2CCCC2c2nonc2C)cc1C (stereo not drawn) | inactive |
| O=C1CCC(=O)N(O)CCCCCNC(=O)CCC(=O)N(O)CCCCCNC(=O)CCC(=O)N(O)CCCCCN1 | inconclusive: 17% |
| CCCc1nnc(NC(=O)CCN2C(=O)CCC2=O)s1 | inactive |
| O=[N+]([O-])c1ccc(CSc2nnc(-c3cccnc3)n2Cc2ccco2)cc1 | inconclusive: 14% |
| CN(C)c1cc(N(C)CC2CC(=O)N(C(C)(C)C)C2)ncn1 (stereo not drawn) | inactive |

(cont.)

Structure (SMILES) | inhibition
Cc1cccc(C(=O)N2CCCC(CCC(=O)Nc3ccc(C(F)(F)F)cc3)C2)n1 (stereo not drawn) | inconclusive: 10%
O=[N+]([O-])c1ccc(Sc2cccc3cccnc23)c2ncccc12 | inconclusive: 16%
O=C(NC[C@H]1O[C@@H](CO)[C@@H](O)[C@H]1N1CCOCC1)c1ccc(C(F)(F)F)cc1 | inconclusive: 22%
COc1cc(NC(=O)N2C[C@@H]3C[C@H](C2)c2ccc(NS(=O)(=O)c4ccc(NC(C)=O)cc4)c(=O)n2C3)cc(OC)c1 | inconclusive: 14%
O=C(NC1CC1)c1ccc2c(c1)N(Cc1c(F)cccc1Cl)C(=O)CS2 | inactive
CN1CCCC(CO)(Cc2ccccc2)C1 (stereo not drawn) | inactive
COc1ccc(/C=C/C(=O)N2CCN=C2c2ccccc2)cc1OC | inconclusive: 12%
COc1ccc(C2=NN(S(=O)(=O)c3ccc(C)cc3)C(c3ccccc3)C2)cc1 (stereo not drawn) | inconclusive: 19%
COCCNC(=O)c1ccc(CN(c2ccc(C)c(C)c2)S(C)(=O)=O)cc1 | inactive
Cn1cc(N=Cc2ccccc2[N+](=O)[O-])c(C(N)=O)n1 | inconclusive: 15%
CN1CCN2CCN(Cc3ccc(C#CCO)cc3)CC2C1 (stereo not drawn) | inconclusive: 14%
Cc1noc(-c2ccnc(-c3ccc(C(N)=O)cc3)c2)n1 | inconclusive: 29%
COC(=O)[C@@H]1C[C@@H](NC(=O)CCc2nc3c(C)c(C)ccc3[nH]2)CN1C | inactive
CCCOc1ccccc1/C=C1/C(=O)NN(c2cccc(Br)c2)C1=O | inconclusive: 16%
Cn1c(C(=O)N2CCCCC2)cc2c(=O)n3ccccc3nc21 | inactive
COc1ccc(C(=O)NC[C@@H]2C=C(C)[C@H](CC(=O)N(C)Cc3cccnc3)C[C@H]2C(C)C)cc1 | inconclusive: 14%
CCCCn1cnc2cc(NCc3ccccc3Cl)ccc21 | inconclusive: 13%
COc1ccc([N+](=O)[O-])cc1CSc1nnc(NC(=O)c2ccccc2)s1 | inconclusive: 10%
CSc1nc(-c2ccco2)nc2c1c(=O)n(C)c(=O)n2C | inactive
N#Cc1ccc(NC(=O)c2noc3c2CCC3)cc1 | inactive
CCOc1ccccc1C(=O)N1CCN=C1SCc1ccc(Br)cc1 | inactive
